Measurements from the supplement of paper PMC3682954.
Structures can show the parent of a compound that is named as a salt. ± gives the standard deviation of the averaged measurements. Some of the results follow. Many values rest on one well or one pass, so single values are uncertain.

Test system: RAW 264.7
Test: cell viability (MTT) relative to vehicle control; higher = more viable cells
Conditions: stimulus: HMGB1 5 ug/ml, 18 h
[1] = compound concentration: 1 ug/ml

Row | Structure (SMILES) | cell viability (compound concentration: 3 uM) [%] | cell viability [1] [%]
1 | CCn1cc(C(=O)O)c(=O)c2cc(F)c(N3CCNC(C)C3)c(F)c21 (stereo not drawn) | 103 | 
2 | CCn1cc(C(=O)O)c(=O)c2cc(F)c(N3CCNC(C)C3)c(F)c21 (stereo not drawn) [Lomefloxacin] | 102 | 
3 | CCn1cc(C(=O)O)c(=O)c2cc(F)c(N3CCNC(C)C3)c(F)c21 (stereo not drawn) [Lomefloxacin hydrochloride] | 112 ± 23 | 
4 | O=c1ccc2c(OCCCCc3ccccc3)c3ccoc3cc2o1 [Psora-4] | 94.2 | 
5 | CNNCc1ccc(C(=O)NC(C)C)cc1 [Procarbazine hydrochloride] | 95.6 | 
6 | CNNCc1ccc(C(=O)NC(C)C)cc1 [Procarbazine] | 102 | 
7 | CNNCc1ccc(C(=O)NC(C)C)cc1 | 93.6 | 
8 | Nc1ccc(C(=O)Oc2ccccc2)c(O)c1 | 115 | 
9 | O=c1[nH]c(=O)n([C@H]2C[C@H](O)[C@@H](CO)O2)cc1F | 95.53 ± 0.88 | 
10 | O=c1[nH]c(=O)n([C@H]2C[C@H](O)[C@@H](CO)O2)cc1F [Floxuridine] | 102 ± 5.8 | 
11 | CN(C)CCC=C1c2ccccc2C=Cc2ccccc21 [Cyclobenzaprine hydrochloride] | 105 ± 18 | 
12 | CN(C)CCC=C1c2ccccc2C=Cc2ccccc21 | 111 | 
13 | CN(C)CCc1c[nH]c2ccc(C[C@H]3COC(=O)N3)cc12 | 109 | 
14 | CN(C)CCc1c[nH]c2ccc(C[C@H]3COC(=O)N3)cc12 [Zolmitriptan] | 97.53 ± 0.25 | 
15 | COc1cc(/C=C/C(=O)O)ccc1O | 98.8 | 
16 | C[N+]1(C)CCC(=C(c2ccccc2)c2ccccc2)CC1 [Diphemanil methylsulfate] | 110 | 
17 | NS(=O)(=O)c1cc2c(cc1Cl)NCNS2(=O)=O [Hydrochlorothiazide] | 101 ± 12 | 
18 | NS(=O)(=O)c1cc2c(cc1Cl)NCNS2(=O)=O | 101 | 
19 | CC(C)OC(=O)CCC/C=C\C[C@@H]1[C@@H](CC[C@@H](O)CCc2ccccc2)[C@H](O)C[C@@H]1O | 96.5 | 
20 | CC(C)OC(=O)CCC/C=C\C[C@@H]1[C@@H](CC[C@@H](O)CCc2ccccc2)[C@H](O)C[C@@H]1O [Latanoprost] | 113 | 
21 | COc1cc(C)c(/C=C/C(C)=C/C=C/C(C)=C/C(=O)O)c(C)c1C [Acitretin] | 115 | 

Row | Structure (SMILES) | cell viability (compound concentration: 3 uM) [%] | cell viability [1] [%]
22 | C[C@@H]1C(=O)O[C@H]2C[C@@]34[C@H]5C[C@@H](C(C)(C)C)[C@]36[C@@H](OC(=O)[C@@H]6O)O[C@@]4(C(=O)O5)[C@]21O [Ginkgolide A] | 115 | 98.7
23 | CC(c1cc2ccccc2s1)N(O)C(N)=O (stereo not drawn) [Zileuton] | 111 ± 4.5 | 
24 | CC(c1cc2ccccc2s1)N(O)C(N)=O (stereo not drawn) | 99.1 ± 3.9 | 
25 | CC(=O)Oc1cc(C(C)C)c(OCCN(C)C)cc1C | 111 | 
26 | CC(=O)Oc1cc(C(C)C)c(OCCN(C)C)cc1C [Moxisylyte hydrochoride] | 98.4 | 
27 | CC(=O)Oc1cc(C(C)C)c(OCCN(C)C)cc1C [Moxisylyte hydrochloride] | 103 | 
28 | O=C(O)c1cc(O)c2c(c1)[C@H]([C@H]1c3cc(C(=O)O)cc(O)c3C(=O)c3c(O[C@@H]4O[C@H](CO)[C@@H](O)[C@H](O)[C@H]4O)cccc31)c1cccc(O[C@@H]3O[C@H](CO)[C@@H](O)[C@H](O)[C@H]3O)c1C2=O | 112 | 
29 | Nc1ncnc2c1ncn2[C@@H]1O[C@H](COP(=O)(O)O)[C@@H](O)[C@H]1O | 104 | 
30 | CCC(=O)O[C@H]1[C@H](O[C@@H]2[C@@H](C)[C@H](O[C@H]3C[C@@](C)(OC)[C@@H](O)[C@H](C)O3)[C@@H](C)C(=O)O[C@H](CC)[C@@](C)(O)[C@H](O)[C@@H](C)C(=O)[C@H](C)C[C@@]2(C)O)O[C@H](C)C[C@@H]1N(C)C | 108 | 
31 | CC1=C(/C=C/C(C)=C/C=C/C(C)=C/C(=O)Nc2ccc(O)cc2)C(C)(C)CCC1 [Retinoic acid p-hydroxyanilide] | 105 | 
32 | CC1=C(/C=C/C(C)=C/C=C/C(C)=C/C(=O)Nc2ccc(O)cc2)C(C)(C)CCC1 [Fenretinide] | 113 | 
33 | CC1=C(/C=C/C(C)=C/C=C/C(C)=C/C(=O)Nc2ccc(O)cc2)C(C)(C)CCC1 | 104 | 
34 | CC(=O)OCC(=O)[C@@]1(O)CC[C@H]2[C@@H]3CCC4=CC(=O)C=C[C@]4(C)[C@@]3(F)[C@@H](O)C[C@@]21C [Isoflupredone acetate] | 99.1 | 
35 | CC(=O)OCC(=O)[C@@]1(O)CC[C@H]2[C@@H]3CCC4=CC(=O)CC[C@]4(C)[C@H]3C(=O)C[C@@]21C [Cortisone 21-acetate] | 102 | 
36 | CC(=O)OCC(=O)[C@@]1(O)CC[C@H]2[C@@H]3CCC4=CC(=O)CC[C@]4(C)[C@H]3C(=O)C[C@@]21C [cortisone 21-acetate] |  | 107
37 | CC(=O)OCC(=O)[C@@]1(O)CC[C@H]2[C@@H]3CCC4=CC(=O)CC[C@]4(C)[C@H]3C(=O)C[C@@]21C | 98.5 | 
38 | COc1cc(C(=O)N2CCOCC2)cc(OC)c1OC | 106 | 
39 | CNCC[C@H](Oc1ccc(C(F)(F)F)cc1)c1ccccc1 [S-(+)-Fluoxetine hydrochloride] | 103 | 
40 | CCCCC(=O)O[C@]1(C(=O)CO)[C@@H](C)C[C@H]2[C@@H]3CCC4=CC(=O)C=C[C@]4(C)[C@@]3(F)[C@@H](O)C[C@@]21C | 119 | 
41 | O=c1cc(-c2ccccc2O)oc2cc(O)cc(O)c12 [5,7,2'-Trihydroxyflavone] |  | 79.6
42 | S=C=Nc1ccc(N=C=S)cc1 | 113 | 

Row | Structure (SMILES) | cell viability (compound concentration: 3 uM) [%] | cell viability [1] [%]
43 | Cn1cc(C(=O)OCC2CCN(CCNS(C)(=O)=O)CC2)c2ccccc21 | 106 | 
44 | C#C[C@]1(O)CC[C@H]2[C@@H]3[C@H](C)CC4=C(CCC(=O)C4)[C@H]3CC[C@@]21C [Tibolone] | 99.205 ± 0.092 | 
45 | C#C[C@]1(O)CC[C@H]2[C@@H]3[C@H](C)CC4=C(CCC(=O)C4)[C@H]3CC[C@@]21C | 98.3 | 
46 | CN(C)CCCOc1nn(Cc2ccccc2)c2ccccc12 [Benzydamine hydrochloride] | 112 | 
47 | CN(C)CCCOc1nn(Cc2ccccc2)c2ccccc12 [Benzydamine] | 86.2 | 
48 | CN(C)CCCOc1nn(Cc2ccccc2)c2ccccc12 | 95.8 | 
49 | O=C1c2c(O)cc(O)cc2OC(c2ccc(O)c(O)c2)C1O (stereo not drawn) |  | 92.6
50 | O=C1c2c(O)cc(O)cc2O[C@H](c2ccc(O)c(O)c2)[C@H]1O (racemic) | 98.3 | 
51 | O=C1c2c(O)cc(O)cc2O[C@H](c2ccc(O)c(O)c2)[C@H]1O | 99.7 | 
52 | O=C1c2ccccc2C(=O)c2c(NCCc3ccc(O)cc3)ccc(NCCc3ccc(O)cc3)c21 | 96.8 | 
53 | CC1CCN=C(N)S1 (racemic) [(±)-AMT hydrochloride] | 111 | 
54 | Nc1ccc(S(=O)(=O)Nc2ccc(Cl)nn2)cc1 [Sulfachloropyridazine] | 103 | 
55 | Nc1ccc(S(=O)(=O)Nc2ccc(Cl)nn2)cc1 | 113 | 
56 | Cc1nc(N=Nc2ccc(C(=O)O)cc2)c(COP(=O)(O)O)c(C=O)c1O | 102 | 
57 | CC1CCC(NC(=O)N(CCCl)N=O)CC1 (stereo not drawn) | 90.4 ± 18 | 
58 | COc1cc2nc(N3CCN(C(=O)C4CCCO4)CC3)nc(N)c2cc1OC (stereo not drawn) [Terazosin hydrochloride] | 123 ± 15 | 
59 | COc1cc2nc(N3CCN(C(=O)C4CCCO4)CC3)nc(N)c2cc1OC (stereo not drawn) [Terazosin] | 90 ± 7.3 | 
60 | COc1cc2nc(N3CCN(C(=O)C4CCCO4)CC3)nc(N)c2cc1OC (stereo not drawn) | 104 | 
61 | Oc1ccc(O)cc1 [Hydroquinone] | 108 | 
62 | Oc1ccc(O)cc1 | 106 | 
63 | C[C@H]1C[C@H]2[C@@H]3CCC4=CC(=O)C=C[C@]4(C)[C@@]3(Cl)[C@@H](O)C[C@]2(C)[C@@]1(O)C(=O)CO [Beclomethasone] | 106 ± 3.4 | 

Row | Structure (SMILES) | cell viability (compound concentration: 3 uM) [%] | cell viability [1] [%]
64 | CC[C@@]1(O)C(=O)OCc2c1cc1n(c2=O)Cc2cc3cc(O)ccc3nc2-1 | 64.2 | 
65 | CC[C@@]1(O)C(=O)OCc2c1cc1n(c2=O)Cc2cc3cc(O)ccc3nc2-1 [10-Hydroxycamptothecin] | 47 | 
66 | Cc1cccc(-c2[nH]c(C(C)(C)C)nc2-c2ccc3nccnc3c2)n1 | 93.2 | 
67 | CC[N+](CC)(CC)CC [Tetraethylammonium chloride] | 118 | 
68 | COc1ccc(CCN(C)CCc2ccc(OC)c(OC)c2)cc1OC [YS-035 hydrochloride] | 110 | 
69 | CC(=O)O[C@]1(C(C)=O)CC[C@H]2[C@@H]3C=C(C)C4=CC(=O)CC[C@@H]4[C@H]3CC[C@@]21C [Nomegestrol acetate] | 82.3 | 
70 | Cc1ccccc1/C=C/C1=NCCN1 [Metrazoline oxalate] | 103 | 
71 | O=C1NC(=O)/C(=C/c2ccc(-c3ccc(F)cc3O)o2)S1 | 97.6 | 
72 | O=C1C(CC[S+]([O-])c2ccccc2)C(=O)N(c2ccccc2)N1c1ccccc1 (stereo not drawn) | 102 | 
73 | O=C1C(CC[S+]([O-])c2ccccc2)C(=O)N(c2ccccc2)N1c1ccccc1 (stereo not drawn) [Sulfinpyrazone] | 90.6 | 
74 | CC(=O)OC/C=C(C)/C=C/C=C(C)/C=C/C1=C(C)CCCC1(C)C | 108 | 
75 | CC(=O)OC/C=C(C)/C=C/C=C(C)/C=C/C1=C(C)CCCC1(C)C [Vitamin A acetate] | 107 | 
76 | Clc1ccc2c(c1)N=C(N1CCNCC1)c1ccccc1N2 [N-Desmethylclozapine] | 88.3 | 
77 | NS(=O)(=O)c1cc2c(cc1Cl)N=C(CSCc1ccccc1)NS2(=O)=O | 107 | 
78 | NS(=O)(=O)c1cc2c(cc1Cl)N=C(CSCc1ccccc1)NS2(=O)=O [Benzthiazide] | 109 | 
79 | CS(=O)(=O)c1ccc([C@@H](O)[C@@H](CO)NC(=O)C(Cl)Cl)cc1 [Thiamphenicol] | 96 | 
80 | CS(=O)(=O)c1ccc([C@@H](O)[C@@H](CO)NC(=O)C(Cl)Cl)cc1 | 102 | 
81 | CC(C)Cc1ccc([C@H](C)C(=O)O)cc1 [S(+)-Ibuprofen] | 99.7 | 
82 | CC(C)Cc1ccc([C@H](C)C(=O)O)cc1 [S-(+)-ibuprofen] | 111 | 

Rewritten tab-delimited: part of the list above.
Row	Structure (SMILES)	cell viability (compound concentration: 3 uM) [%]	cell viability [1] [%]
64	CC[C@@]1(O)C(=O)OCc2c1cc1n(c2=O)Cc2cc3cc(O)ccc3nc2-1	64.2	
66	Cc1cccc(-c2[nH]c(C(C)(C)C)nc2-c2ccc3nccnc3c2)n1	93.2	
68	COc1ccc(CCN(C)CCc2ccc(OC)c(OC)c2)cc1OC [YS-035 hydrochloride]	110	
69	CC(=O)O[C@]1(C(C)=O)CC[C@H]2[C@@H]3C=C(C)C4=CC(=O)CC[C@@H]4[C@H]3CC[C@@]21C [Nomegestrol acetate]	82.3	
71	O=C1NC(=O)/C(=C/c2ccc(-c3ccc(F)cc3O)o2)S1	97.6	
72	O=C1C(CC[S+]([O-])c2ccccc2)C(=O)N(c2ccccc2)N1c1ccccc1 (stereo not drawn)	102	
73	O=C1C(CC[S+]([O-])c2ccccc2)C(=O)N(c2ccccc2)N1c1ccccc1 (stereo not drawn) [Sulfinpyrazone]	90.6	
74	CC(=O)OC/C=C(C)/C=C/C=C(C)/C=C/C1=C(C)CCCC1(C)C	108	
75	CC(=O)OC/C=C(C)/C=C/C=C(C)/C=C/C1=C(C)CCCC1(C)C [Vitamin A acetate]	107	
76	Clc1ccc2c(c1)N=C(N1CCNCC1)c1ccccc1N2 [N-Desmethylclozapine]	88.3	
78	NS(=O)(=O)c1cc2c(cc1Cl)N=C(CSCc1ccccc1)NS2(=O)=O [Benzthiazide]	109	
79	CS(=O)(=O)c1ccc([C@@H](O)[C@@H](CO)NC(=O)C(Cl)Cl)cc1 [Thiamphenicol]	96	
80	CS(=O)(=O)c1ccc([C@@H](O)[C@@H](CO)NC(=O)C(Cl)Cl)cc1	102	
81	CC(C)Cc1ccc([C@H](C)C(=O)O)cc1 [S(+)-Ibuprofen]	99.7	
82	CC(C)Cc1ccc([C@H](C)C(=O)O)cc1 [S-(+)-ibuprofen]	111	
